Article PMC10513324
Results are given in words; binding and its absence hold for the method and conditions named. Binding seen in cells or lysates may run through a third protein. Some entries that bind do so weakly or less than the wild type. Tags and fused reporters may be left off the sequences shown.

Key:
ANKS3 ΔNter-Flag = target: T1, ANKS3 ΔNter-Flag (UniProt Q6ZW76); assay: pull-down; v5-ANKS6 and ANKS3-Flag (full-length or ΔNter) co-transfected in HEK293T, both in the extract; read by what is retained on GST-KH beads; 2 h at 4°C; western blot
T1 sequence: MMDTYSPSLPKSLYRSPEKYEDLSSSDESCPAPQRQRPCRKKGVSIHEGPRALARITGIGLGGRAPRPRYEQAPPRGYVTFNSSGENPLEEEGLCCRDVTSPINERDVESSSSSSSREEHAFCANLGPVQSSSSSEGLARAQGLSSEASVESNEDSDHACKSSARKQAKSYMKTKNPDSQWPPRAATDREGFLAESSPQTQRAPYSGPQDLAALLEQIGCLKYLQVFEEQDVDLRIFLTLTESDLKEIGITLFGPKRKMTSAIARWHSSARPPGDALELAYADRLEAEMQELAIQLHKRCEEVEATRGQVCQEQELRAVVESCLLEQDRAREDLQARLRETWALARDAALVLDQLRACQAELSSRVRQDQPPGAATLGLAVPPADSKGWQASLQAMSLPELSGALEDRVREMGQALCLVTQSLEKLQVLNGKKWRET

HA-Bicc1 [1] = target: T2, HA-Bicc1 (UniProt Q99MQ1); assay: co-IP; as a6 but with v5-ANKS6 (8 μg) co-expressed: anti-HA beads, cytoplasmic extracts of HEK293T cells with HA-Bicc1, ANKS3-Flag and v5-ANKS6; western blot of the IP fraction
T2 sequence: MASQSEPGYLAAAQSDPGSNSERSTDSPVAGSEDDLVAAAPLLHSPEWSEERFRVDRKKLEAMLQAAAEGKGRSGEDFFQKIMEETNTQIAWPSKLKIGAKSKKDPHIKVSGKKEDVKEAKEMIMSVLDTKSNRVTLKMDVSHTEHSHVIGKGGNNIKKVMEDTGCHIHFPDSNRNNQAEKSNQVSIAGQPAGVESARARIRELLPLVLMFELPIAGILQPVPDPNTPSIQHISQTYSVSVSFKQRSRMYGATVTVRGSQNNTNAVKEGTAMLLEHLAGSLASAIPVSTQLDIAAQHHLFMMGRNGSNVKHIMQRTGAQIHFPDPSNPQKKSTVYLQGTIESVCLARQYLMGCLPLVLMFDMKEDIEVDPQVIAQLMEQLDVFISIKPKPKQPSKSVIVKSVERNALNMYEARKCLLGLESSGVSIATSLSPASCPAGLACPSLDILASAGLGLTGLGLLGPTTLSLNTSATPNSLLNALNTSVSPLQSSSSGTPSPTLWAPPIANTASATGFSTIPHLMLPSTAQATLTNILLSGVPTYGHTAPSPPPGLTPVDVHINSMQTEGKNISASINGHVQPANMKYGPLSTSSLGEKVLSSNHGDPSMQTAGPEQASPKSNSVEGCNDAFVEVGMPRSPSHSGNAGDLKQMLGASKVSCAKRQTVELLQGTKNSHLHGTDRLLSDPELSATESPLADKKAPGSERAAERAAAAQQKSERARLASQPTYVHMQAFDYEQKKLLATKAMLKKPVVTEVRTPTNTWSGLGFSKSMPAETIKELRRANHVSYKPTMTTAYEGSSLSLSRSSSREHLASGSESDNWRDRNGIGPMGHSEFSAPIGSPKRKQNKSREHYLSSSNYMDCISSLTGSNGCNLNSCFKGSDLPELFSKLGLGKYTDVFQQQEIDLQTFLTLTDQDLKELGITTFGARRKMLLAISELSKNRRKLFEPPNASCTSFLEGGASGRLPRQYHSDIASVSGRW

[2] = target: T3, GST-Bicc1 (full-length, WT) (UniProt Q99MQ1); assay: pull-down; full-length GST-Bicc1 (WT or mutD) on glutathione-Sepharose 4B beads, no RNA; HEK293T cell extracts with full-length or truncated ANKS3-Flag; 2 h at 4°C; western blot; only the target purified
T3 sequence: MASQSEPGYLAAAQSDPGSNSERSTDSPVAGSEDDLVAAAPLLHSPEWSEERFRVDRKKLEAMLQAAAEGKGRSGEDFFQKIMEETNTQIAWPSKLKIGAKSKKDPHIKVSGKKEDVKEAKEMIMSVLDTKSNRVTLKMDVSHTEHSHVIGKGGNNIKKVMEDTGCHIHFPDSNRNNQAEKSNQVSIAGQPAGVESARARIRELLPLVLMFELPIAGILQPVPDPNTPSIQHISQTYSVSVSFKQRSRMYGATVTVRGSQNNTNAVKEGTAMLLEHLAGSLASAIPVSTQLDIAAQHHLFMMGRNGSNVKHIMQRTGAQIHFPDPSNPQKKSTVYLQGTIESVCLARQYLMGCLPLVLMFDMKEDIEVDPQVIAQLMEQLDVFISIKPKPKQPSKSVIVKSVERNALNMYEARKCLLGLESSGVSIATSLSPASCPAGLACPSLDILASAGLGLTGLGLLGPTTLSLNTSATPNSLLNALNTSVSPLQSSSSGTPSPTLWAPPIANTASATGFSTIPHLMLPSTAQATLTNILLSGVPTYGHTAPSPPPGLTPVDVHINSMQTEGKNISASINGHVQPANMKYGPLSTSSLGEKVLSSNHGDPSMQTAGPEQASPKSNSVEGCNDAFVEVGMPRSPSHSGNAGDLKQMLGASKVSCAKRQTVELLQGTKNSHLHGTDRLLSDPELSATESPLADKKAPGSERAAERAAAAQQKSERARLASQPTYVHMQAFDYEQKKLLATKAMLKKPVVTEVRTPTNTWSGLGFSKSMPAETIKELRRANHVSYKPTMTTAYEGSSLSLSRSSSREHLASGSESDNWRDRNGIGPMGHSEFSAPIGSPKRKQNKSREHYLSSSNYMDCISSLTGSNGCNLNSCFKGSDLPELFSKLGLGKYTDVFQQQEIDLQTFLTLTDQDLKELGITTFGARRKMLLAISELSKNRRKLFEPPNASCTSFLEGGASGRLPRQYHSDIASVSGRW

HA-Bicc1 [3] = target: T2, HA-Bicc1; assay: co-IP; anti-HA beads, cytoplasmic extracts of HEK293T cells co-transfected with HA-Bicc1, dsVenus-Dand5 3′ UTR reporter and full-length or truncated ANKS3-Flag, without v5-ANKS6; 2 h at 4°C; wash with 200 mM NaCl, 0.1% NP-40; western blot of the IP fraction

| Binder | binding (ANKS3 ΔNter-Flag) | binding (HA-Bicc1 [1]) | binding [2] | binding (HA-Bicc1 [3]) |
| --- | --- | --- | --- | --- |
| v5-ANKS6 (protein, UniProt Q68DC2 1-871) MGEGGLPPAFQLLLRACDQGDTETARRLLEPGAAEPAERGAEPEAGAEPAGAEVAGPGAAAAGAVGAPVPVDCSDEAGNTALQFAAAGGHEPLVRFLLRRGASVNSRNHYGWSALMQAARFGHVSVAHLLLDHGADVNAQNRLGASVLTVASRGGHLGVVKLLLEAGAFVDHHHPSGEQLGLGGSRDEPLDITALMAAIQHGHEAVVRLLMEWGADPNHAARTVGWSPLMLAALTGRLGVAQQLVEKGANPDHLSVLEKTAFEVALDCKHRDLVDYLDPLTTVRPKTDEEKRRPDIFHALKMGNFQLVKEIADEDPSHVNLVNGDGATPLMLAAVTGQLALVQLLVERHADVDKQDSVHGWTALMQATYHGNKEIVKYLLNQGADVTLRAKNGYTAFDLVMLLNDPDTELVRLLASVCMQVNKDKGRPSHQPPLPHSKVRQPWSIPVLPDDKGGLKSWWNRMSNRFRKLKLMQTLPRGLSSNQPLPFSDEPEPALDSTMRAAPQDKTSRSALPDAAPVTKDNGPGSTRGEKEDTLLTTMLRNGAPLTRLPSDKLKAVIPPFLPPSSFELWSSDRSRTRHNGKADPMKTALPQRASRGHPVGGGGTDTTPVRPVKFPSLPRSPASSANSGNFNHSPHSSGGSSGVGVSRHGGELLNRSGGSIDNVLSQIAAQRKKAAGLLEQKPSHRSSPVGPAPGSSPSELPASPAGGSAPVGKKLETSKRPPSGTSTTSKSTSPTLTPSPSPKGHTAESSVSSSSSHRQSKSSGGSSSGTITDEDELTGILKKLSLEKYQPIFEEQEVDMEAFLTLTDGDLKELGIKTDGSRQQILAAISELNAGKGRERQILQETIHNFHSSFESSASNTRAPGNSPCA | binds |  |  |  |
| ANKS3-Flag (full-length) (protein, UniProt Q6ZW76 1-656) MSELSDEASEPELLNRSLSMWHGLGTQVSGEELDVPLDLHTAASIGQYEVVKECVQRRELDLNKKNGGGWTPLMYASYIGHDTIVHLLLEAGVSVNVPTPEGQTPLMLASSCGNESIAYFLLQQGAELEMKDIQGWTALFHCTSAGHQHMVRFLLDSGANANVREPICGFTPLMEAAAAGHEIIVQYFLNHGVKVDARDHSGATARMLAKQYGHMKIVALMDTYSPSLPKSLYRSPEKYEDLSSSDESCPAPQRQRPCRKKGVSIHEGPRALARITGIGLGGRAPRPRYEQAPPRGYVTFNSSGENPLEEEGLCCRDVTSPINERDVESSSSSSSREEHAFCANLGPVQSSSSSEGLARAQGLSSEASVESNEDSDHACKSSARKQAKSYMKTKNPDSQWPPRAATDREGFLAESSPQTQRAPYSGPQDLAALLEQIGCLKYLQVFEEQDVDLRIFLTLTESDLKEIGITLFGPKRKMTSAIARWHSSARPPGDALELAYADRLEAEMQELAIQLHKRCEEVEATRGQVCQEQELRAVVESCLLEQDRAREDLQARLRETWALARDAALVLDQLRACQAELSSRVRQDQPPGAATLGLAVPPADSKGWQASLQAMSLPELSGALEDRVREMGQALCLVTQSLEKLQVLNGKKWRET |  | binds | binds | binds |
| ANKS3 ΔNter-Flag (domain or fragment, UniProt Q6ZW76) MMDTYSPSLPKSLYRSPEKYEDLSSSDESCPAPQRQRPCRKKGVSIHEGPRALARITGIGLGGRAPRPRYEQAPPRGYVTFNSSGENPLEEEGLCCRDVTSPINERDVESSSSSSSREEHAFCANLGPVQSSSSSEGLARAQGLSSEASVESNEDSDHACKSSARKQAKSYMKTKNPDSQWPPRAATDREGFLAESSPQTQRAPYSGPQDLAALLEQIGCLKYLQVFEEQDVDLRIFLTLTESDLKEIGITLFGPKRKMTSAIARWHSSARPPGDALELAYADRLEAEMQELAIQLHKRCEEVEATRGQVCQEQELRAVVESCLLEQDRAREDLQARLRETWALARDAALVLDQLRACQAELSSRVRQDQPPGAATLGLAVPPADSKGWQASLQAMSLPELSGALEDRVREMGQALCLVTQSLEKLQVLNGKKWRET |  |  | binds | binds |
